Taken from: PubChem BioAssay AID1259308 (NCATS, 2017)
The whole screen tested about 59,000 reagents; this is a part drawn at random. About 1,510 of them (2.6%) were called active. 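Calls use total luciferase alone and ignore viability, so some active siRNAs may act by altering cell number.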 A number with no mark means an inactive call.

Purpose: 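Candidate targets for better recombinant protein yield in mammalian cells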 (primary screen)
System: human HEK293 embryonic kidney cells stably expressing firefly luciferase (HEK-CMV-Luc2-Hygro)
Knock-down reagent: single siRNA against human genes, 0.8 pmol siRNA per well
Timing: 72 h
Detection: 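Luciferase light (ONE-Glo) measured on one replicate plate set and viability (CellTiter-Glo) on the other, scaled to a negative control siRNA, with robust z-scores and luciferase per cell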
Direction: total luciferase, z-score and total luciferase, % of control: higher = more reporter protein produced; luciferase per cell, z-score: higher = more reporter output per viable cell; viable cells, % of control: higher = more viable cells
Call rule: 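Active when the median/MAD z-score for overall luciferase is greater than 3; a gene was taken forward for validation with new siRNAs if at least two of its three siRNAs passed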
Calls: active = raised luciferase; inactive = no rise

Gene	PubChem SID	total luciferase, z-score	total luciferase, % of control	luciferase per cell, z-score	viable cells, % of control
ADIPOR1	SID160740035	0.793	97.7	-0.362	120
ADIPOR1	SID160740036	0.643	94.7	-0.0445	107
ADIPOR1	SID160740037	-0.0659	80.6	0.0444	89
DOCK10	SID160743914	0.444	90.7	-0.0851	104
DOCK10	SID160743915	-1.84	45.3	-1.31	71.5
DOCK10	SID160743916	0.492	91.7	1.35	71.9
PLEKHA8	SID160752655	0.0787	83.5	-0.219	98.8
PLEKHA8	SID160752656	-1.49	52.3	-0.972	75.5
PLEKHA8	SID160752657	-0.578	70.4	-0.862	98.7
CCDC192	SID160771928	0.284	87.5	0.48	86.2
CCDC192	SID160771929	1.15	105	0.523	102
CCDC192	SID160771930	-0.877	64.4	-0.106	74.1
PPEF2	SID160714716	0.671	95.2	0.918	83.5
PPEF2	SID160714717	0.884	99.5	0.245	104
PPEF2	SID160714718	-0.64	69.2	-0.993	100
ZNF99	SID160719130	-0.905	63.9	0.399	64.3
ZNF99	SID160719131	1.14	105	0.866	93
ZNF99	SID160719132	-0.148	78.9	-0.669	105

Ordered by “luciferase per cell, z-score” (descending): some entries from above.
Gene	PubChem SID	total luciferase, z-score	total luciferase, % of control	luciferase per cell, z-score	viable cells, % of control
ZNF99	SID160719131	1.14	105	0.866	93
ZNF99	SID160719130	-0.905	63.9	0.399	64.3
ZNF99	SID160719132	-0.148	78.9	-0.669	105
PPEF2	SID160714718	-0.64	69.2	-0.993	100

The list goes on.
Gene	PubChem SID	total luciferase, z-score	total luciferase, % of control	luciferase per cell, z-score	viable cells, % of control
ASH2L	SID160721402	-0.456	72.8	-0.0835	83.2
ASH2L	SID160721403	-0.846	65.1	0.361	66.1
ASH2L	SID160721404	-0.855	64.9	-0.878	91.4
LRRTM1	SID160765003	-0.35	74.9	-0.456	94.4
LRRTM1	SID160765004	0.183	85.5	-0.226	101
LRRTM1	SID160765005	-0.757	66.8	-0.903	94.7
GTF3C5	SID160721953	0.0956	83.8	-0.241	99.8
GTF3C5	SID160721954	-0.928	63.4	-1.52	106
GTF3C5	SID160721955	0.876	99.3	0.651	93.5
NLRC5	SID160751818	0.243	86.7	0.437	86.4
NLRC5	SID160751819	-0.105	79.8	-0.74	108
NLRC5	SID160751820	0.561	93	0.0792	102
F13A1	SID160763224	0.466	91.2	1.45	69.5
F13A1	SID160763234	0.31	88.1	1.68	63.2
F13A1	SID160763245	0.141	84.7	-0.0662	96.3
RNF169	SID160762168	-2.76	26.9	-3.07	67.6
RNF169	SID160762169	-0.312	75.7	-0.598	99
RNF169	SID160762170	1.46	111	1.48	83.9
RP2	SID160716001	1.17	105	0.938	91.8
RP2	SID160716002	1.12	104	0.346	106
RP2	SID160716003	0.574	93.3	-0.0665	106
